PubChem BioAssay AID1224830 – NIAID | 2016
Assay: 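Genes whose knock-down alters the TNF-alpha reporter response to LPS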 (primary screen). Cell system: human THP-1 monocytic leukaemia cells, TNF dual-luciferase reporter clone, PMA-differentiated to macrophage-like cells. Reagents: siRNA pool against human genes, 50 nM. Duration: LPS for 4 h, given about 3 days after siRNA transfection. Treatment: bacterial LPS (TLR4 ligand), 10 ng/ml. Measured: 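TNF firefly reporter luminescence divided by renilla, normalised to the plate median, then turned into a robust z-score for each replicate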. Scale: TNF reporter robust z-score: higher = stronger TNF reporter response to LPS. Hit rule: 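a well is active when its z-score exceeds 2.8 or falls below -1.5; control wells carry no call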.
The whole screen tested about 18,000 reagents; shown is a random part of them. Of all reagents, about 2,900 (16%) are marked active. 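Calls are made per well; low scores hint the gene aids the LPS response, high scores that it dampens it.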 Entries without a mark were called inactive. Repeated entries: four replicate wells of each siRNA pool. No sequences are given here.

target gene | TNF reporter robust z-score
PABPC1 | -0.51
PABPC1 | -0.29
PABPC1 | -1.03
PABPC1 | -1.07
MC5R | -0.51
MC5R | 0.3
MC5R | -0.48
MC5R | -0.28
BUD23 | -0.57
BUD23 | 0.09
BUD23 | 0.57
BUD23 | 1.16
ARSD | 0.04
ARSD | 1.14
ARSD | 0.73
ARSD | 1.18
HAUS2 | -0.04
HAUS2 | 1.02
HAUS2 | 0.2
HAUS2 | 0.91
TMEM87B | 0.88
TMEM87B | 1.78
TMEM87B | 0.43
TMEM87B | 2.98 (active)
TOP2B | -0.32
TOP2B | 0
TOP2B | 0.01
TOP2B | 0.61
OR10K2 | -0.55
OR10K2 | 0.12
OR10K2 | -0.36
OR10K2 | -0.63
C9orf40 | -0.51
C9orf40 | -0.14
C9orf40 | -1.26
C9orf40 | 0
ARRDC3 | 1.05
ARRDC3 | 1.25
ARRDC3 | 1.21
ARRDC3 | -0.44
TBX21 | -0.1
TBX21 | 0.63
TBX21 | 0.3
TBX21 | 0.86
KIRREL2 | -0.45
KIRREL2 | -1.27
KIRREL2 | -1.6 (active)
KIRREL2 | -0.74
RUSF1 | 0.23
RUSF1 | 1.72
RUSF1 | -0.05
RUSF1 | 0.29
NPR2 | 2.81 (active)
NPR2 | 2.57
NPR2 | 2.05
NPR2 | 0.85
H4C4 | -0.22
H4C4 | -0.18
H4C4 | 0.42
H4C4 | -0.14
ARGLU1 | 0.04
ARGLU1 | 0.4
ARGLU1 | -0.99
ARGLU1 | -0.04
RTEL1 | 0.72
RTEL1 | 5.51 (active)
RTEL1 | -0.9
RTEL1 | 1.67
CACTIN | -0.34
CACTIN | -0.61
CACTIN | -1.38
CACTIN | -0.8
VPS26A | -1.08
VPS26A | -0.51
VPS26A | -0.83
VPS26A | -0.47
ANAPC4 | -0.3
ANAPC4 | 0.93
ANAPC4 | 0.92
ANAPC4 | -0.47
EPHX3 | 1.14
EPHX3 | 0.8
EPHX3 | 0.96
EPHX3 | 1.2
MAIP1 | 0.33
MAIP1 | 0.26
MAIP1 | 1.42
MAIP1 | 0.25
SUN5 | 1.91
SUN5 | 1.32
SUN5 | 1.01
SUN5 | 1.19
CNPY3 | -0.47
CNPY3 | -1.03
CNPY3 | -0.72
CNPY3 | -0.55
SNF8 | 0.06
SNF8 | 0.29
SNF8 | -0.3
SNF8 | 1.35
COLEC10 | -0.07
COLEC10 | -0.7
COLEC10 | -0.29
COLEC10 | -0.58
GLOD4 | -0.17
GLOD4 | -0.67
GLOD4 | -1.15
GLOD4 | 0.24
VASP | 3.45 (active)
VASP | 2.02
VASP | 1.88
VASP | -0.98
